# According to patent US20040009905A1 (B.M.R.A. Corporation B.V., priority 1998, published 2004):
# HELM strings list residues between dots; [ac] is acetyl, [am] amide, other brackets name non-standard units.
# Experiment: general procedure: Fmoc solid-phase peptide synthesis; Rink amide resin; PyBOP/DIEA
# Settings: conjugation step
substance,measurement,value
"PEPTIDE1{[Amn].[Lys(oxAoa)].G.[Lys(oxAoa)]}|PEPTIDE2{G.Y.S.A.L.R.H.Y.I.N.L.I.T.R.Q.R.Y.[am]}|PEPTIDE3{G.Y.S.A.L.R.H.Y.I.N.L.I.T.R.Q.R.Y.[am]}$PEPTIDE1,PEPTIDE1,1:R1-4:R2|PEPTIDE1,PEPTIDE2,2:R3-1:R1|PEPTIDE1,PEPTIDE3,4:R3-1:R1$$$V2.0",conjugation yield,45% yield
